This note sets out measurements from patent publication US20250090651A1.

In the assay the target is I53-50B.4PosT1. The experiment in a line: in vitro assembly with I53-50B, DLS.

These are yes or no findings as the source states them, for the method shown. Some binding calls cover weakened binding; strength is not graded here.

B1: RSV/B.160 (protein)
chain: QNITEEFYQSTCSAVSRGYLSALRTGWYTSVITIELSNIKETKCNGTDTKVKLIKQELDKYKNAVTELQLLMQNTPAVNNRARREAPQYMNYTINTTKNLNVSISKKRKRRFLGFLLGVGSAIASGIAVCKVLHLEGEVNKIKNALQLTNKAVVSLSNGVSVLTFRVLDLKNYINNQLLPMLNRQSCRISNIETVIEFQQKNSRLLEITREFSVNAGVTTPLSPYMLTNSELLSLINDMPITNDQKKLMSSNVQIVRQQSYSIMCIIKEEVLAYVVQLPIYGVIDTPCWKLHTSPLCTTNIKEGSNICLTRTDRGWYCDNAGSVSFFPQADTCKVQSNRVFCDTMNSLTLPSEVSLCNTDIFNSKYDCKIMTSKDDISSSVITSLGAIVSCYGKTKCTASNKNRGIIKTFSNGCDYVSNKGVDTVSVGNTLYYVNKLEGKNLYVKGEPIINYYDPLVFPSDRWAASISQVNEAINQSREIIRAINIVRKIASEKGSGGSGSGSGGSEKAAKAEEAARKMEELFKKHKIVAVLRANSVEEAIEKAVAVFAGGVHLIEITFTVPDADTVIKALSVLKEKGAIIGAGTVTSVEQARKAVESGAEFIVSPHLDEEISQFAKEKGVFYMPGVMTPTELVKAMKLGHTILKLFPGEVVGPQFVKAMKGPFPNVKFVPTGGVNLDNVAEWFKAGVLAVGVGSALVKGTPDEVREKAKAFVEKIRGATELEHHHHHH
Consider B1, for which the binding result is listed as “binds”.

B2: RSV/B.189 (protein)
chain: QNITEEFYQSTCSAVSRGYLSALRTGWYTSVITIELSNIKETKCNGTDTKVKLIKQELDKYKNAVTELQLLMQNTPAVNNRARREAPQYMNYTINTTKNLNVSISKKRKRRFLGFLLGVGSAIASGIAVCKVLHLEGEVNKIKNALQLTNKAVVSLSNGVSVLTFRVLDLKNYINNQLLPMLNRQSCRISNIETVIEFQQKNSRLLEITREFSVNAGVTTPLSTYMLTNSELLSLINDMPITNDQKKLMSSNVQIVRQQSYSIMCIIKEEVLAYVVQLPIYGVIDTPCWKLHTSPLCTTNIKEGSNICLTRTDRGWYCDNAGSVSFFPQADTCKVQSNRVFCDTMNSLTLPSEVSLCNTDIFNSKYDCKIMTSKDDISSSVITSLGAIVSCYGKTKCTASNKNRGIIKTFSNGCDYVSNKGVDTVSVGNTLYYVNKLEGKNLYVKGEPIINYYDPLVFPSARWAASISQVNEAINQSREIIRAINIVRKIASEKGSGGSGSGSGGSEKAAKAEEAARKMEELFKKHKIVAVLRANSVEEAIEKAVAVFAGGVHLIEITFTVPDADTVIKALSVLKEKGAIIGAGTVTSVEQARKAVESGAEFIVSPHLDEEISQFAKEKGVFYMPGVMTPTELVKAMKLGHTILKLFPGEVVGPQFVKAMKGPFPNVKFVPTGGVNLDNVAEWFKAGVLAVGVGSALVKGTPDEVREKAKAFVEKIRGATELEHHHHHH
With B2, the binding result was “binds”.

B3: RSV/B.172 (protein)
chain: QNITEEFYQSTCSAVSRGYLSALRTGWYTSVITIELSNIKETKCNGTDTKVKLIKQELDKYKNAVTELQLLMQNTPAVNNRARREAPQYMNYTINTTKNLNVSISKKRKRRFLGFLLGVGSAIASGIAVCKVLHLEGEVNKIKNALQLTNKAVVSLSNGVSVLTFRVLDLKNYINNQLLPMLNRQSCRISNIETVIEFQQKNSRLLEITREFSVNAGVTTPLSPYMLTNSELLSLINDMPITNDQKKLMSSNVQIVRQQSYSIMCIIKEEVLAYVVQLPIYGVIDTPCWKLHTSPLCTTNIKEGSNICLTRTDRGWYCDNAGSVSFFPQADTCKVQSNRVFCDTMNSLTLPSEVSLCNTDIFNSKYDCKIMTSKDDISSSVITSLGAIVSCYGKTKCTASNKNRGIIKTFSNGCDYVSNKGVDTVSVGNTLYYVNKLEGKNLYVKGEPIINYYDPLVFPSDRFAASISQVNEAINQSREIIRAINIVRKIASEKGSGGSGSGSGGSEKAAKAEEAARKMEELFKKHKIVAVLRANSVEEAIEKAVAVFAGGVHLIEITFTVPDADTVIKALSVLKEKGAIIGAGTVTSVEQARKAVESGAEFIVSPHLDEEISQFAKEKGVFYMPGVMTPTELVKAMKLGHTILKLFPGEVVGPQFVKAMKGPFPNVKFVPTGGVNLDNVAEWFKAGVLAVGVGSALVKGTPDEVREKAKAFVEKIRGATELEHHHHHH
On to B3, for which the binding entry is “binds”.

B4: RSV/B.171 (protein)
chain: QNITEEFYQSTCSAVSRGYLSALRTGWYTSVITIELSNIKETKCNGTDTKVKLIKQELDKYKNAVTELQLLMQNTPAVNNRARREAPQYMNYTINTTKNLNVSISKKRKRRFLGFLLGVGSAIASGIAVCKVLHLEGEVNKIKNALQLTNKAVVSLSNGVSVLTFRVLDLKNYINNQLLPMLNRQSCRISNIETVIEFQQKNSRLLEITREFSVNAGVTTPLSTYMLTNSELLSLINDMPITNDQKKLMSSNVQIVRQQSYSIMCIIKEEVLAYVVQLPIYGVIDTPCWKLHTSPLCTTNIKEGSNICLTRTDRGWYCDNAGSVSFFPQADTCKVQSNRVFCDTMNSLTLPSEVSLCNTDIFNSKYDCKIMTSKDDISSSVITSLGAIVSCYGKTKCTASNKNRGIIKTFSNGCDYVSNKGVDTVSVGNTLYYVNKLEGKNLYVKGEPIINYYDPLVFPSDRFAASISQVNEAINQSREIIRAINIVRKIASEKGSGGSGSGSGGSEKAAKAEEAARKMEELFKKHKIVAVLRANSVEEAIEKAVAVFAGGVHLIEITFTVPDADTVIKALSVLKEKGAIIGAGTVTSVEQARKAVESGAEFIVSPHLDEEISQFAKEKGVFYMPGVMTPTELVKAMKLGHTILKLFPGEVVGPQFVKAMKGPFPNVKFVPTGGVNLDNVAEWFKAGVLAVGVGSALVKGTPDEVREKAKAFVEKIRGATELEHHHHHH
Regarding B4, the binding result is “binds”.

B5: RSV/B.178 (protein)
chain: QNITEEFYQSTCSAVSRGYLSALRTGWYTSVITIELSNIKETKCNGTDTKVKLIKQELDKYKNAVTELQLLMQNTPAVNNRARREAPQYMNYTINTTKNLNVSISKKRKRRFLGFLLGVGSAIASGIAVCKVLHLEGEVNKIKNALQLTNKAVVSLSNGVSVLTFRVLDLKNYINNQLLPMLNRQSCRISNIETVIEFQQKNSRLLEITREFSVNAGVTTPLSPYMLTNSELLSLINDMPITNDQKKLMSSNVQIVRQQSYSIMCIIKEEVLAYVVQLPIYGVIDTPCWKLHTSPLCTTNIKEGSNICLTRTDRGWYCDNAGSVSFFPQADTCKVQSNRVFCDTMNSLTLPSEVSLCNTDIFNSKYDCKIMTSKDDISSSVITSLGAIVSCYGKTKCTASNKNRGIIKTFSNGCDYVSNKGVDTVSVGNTLYYVNKLEGKNLYVKGEPIINYYDPLVFPSARFAASISQVNEAINQSREIIRAINIVRKIASEKGSGGSGSGSGGSEKAAKAEEAARKMEELFKKHKIVAVLRANSVEEAIEKAVAVFAGGVHLIEITFTVPDADTVIKALSVLKEKGAIIGAGTVTSVEQARKAVESGAEFIVSPHLDEEISQFAKEKGVFYMPGVMTPTELVKAMKLGHTILKLFPGEVVGPQFVKAMKGPFPNVKFVPTGGVNLDNVAEWFKAGVLAVGVGSALVKGTPDEVREKAKAFVEKIRGATELEHHHHHH
B5: the binding result was “binds”.

B6: RSV/B.195 (protein)
chain: QNITEEFYQSTCSAVSRGYLSALRTGWYTSVITIELSNIKETKCNGTDTKVKLIKQELDKYKNAVTELQLLMQNTPAVNNRARREAPQYMNYTINTTKNLNVSISKKRKRRFLGFLLGVGSAIASGIAVCKVLHLEGEVNKIKNALQLTNKAVVSLSNGVSVLTFRVLDLKNYINNQLLPMLNRQSCRISNIETVIEFQQKNSRLLEITREFSVNAGVTTPLSTYMLTNSELLSLINDMPITNDQKKLMSSNVQIVRQQSYSIMCIIKEEVLAYVVQLPIYGVIDTPCWKLHTSPLCTTNIKEGSNICLTRTDRGWYCDNAGSVSFFPQADTCKVQSNRVFCDTMNSLTLPSEVSLCNTDIFNSKYDCKIMTSKTDISSSVITSLGAIVSCYGKTKCTASNKNRGIIKTFSNGCDYVSNKGVDTVSVGNTLYYVNKLEGKNLYVKGEPIINYYDPLVFPSDEFDASISQVNEKINQSREIIRAINIVRKIASEKGSGGSGSGSGGSEKAAKAEEAARKMEELFKKHKIVAVLRANSVEEAIEKAVAVFAGGVHLIEITFTVPDADTVIKALSVLKEKGAIIGAGTVTSVEQARKAVESGAEFIVSPHLDEEISQFAKEKGVFYMPGVMTPTELVKAMKLGHTILKLFPGEVVGPQFVKAMKGPFPNVKFVPTGGVNLDNVAEWFKAGVLAVGVGSALVKGTPDEVREKAKAFVEKIRGATELEHHHHHH
On to B6, for which the binding result is “binds”.
